Results published in PubChem BioAssay AID248 (DTP/NCI, 2004).
The list is a part of this screen's results and no random one: it is rich in T/C values a quarter to a half above the control, in often repeated tests (any T/C) and in doses without a T/C. Further doses and runs are listed elsewhere. T/C is the treated group as % of the vehicle group. Some entries give survivors of the animals treated and no T/C: the source files T/C as zero there, which appears to mark a toxic dose or a test without result, not a measured value. Some survivor counts are full or nearly so, which does not show that the dose was tolerated: survival well below the control is almost never listed, so the zero probably covers shortened survival too. Counts of survivors are from the toxicity check (mostly the fifth day) where no day follows; animals may have died later. Schedule codes are those of the source, read here as Q, the interval in days (D) or hours (H), X, the number of doses. Some molecules as drawn cover several salts, stereoisomers or complexes of the source; a dose is that of the sample tested. Where survival is the endpoint, this PubChem deposit counts one and a half times the control or more as active, and values a quarter to a half above the control carry no call in these data; other NCI protocols may use other cut-offs. Some entries were tested several times; the results are listed from low to high. Additions like (4×) count equal records among those shown.

Tested on: L1210 leukemia ip in BDF1 mice, survival T/C
Test: NCI In Vivo Anticancer Drug Screen. Data for tumor model L1210 Leukemia (intraperitoneal) in B6D2F1 (BDF1) mice
Settings: T/C endpoint: mean survival time, higher T/C = longer survival
[1] = dose: 50.0 mg/kg/injection, schedule: Q01DX009 (ip), vehicle: saline with Tween-80
[2] = dose: 100.0 mg/kg/injection, schedule: Q01DX009 (ip), vehicle: saline with Tween-80
[3] = dose: 400.0 mg/kg/injection, schedule: Q01DX001 (ip), vehicle: carboxymethylcellulose (CMC)
[4] = dose: 80.0 mg/kg/injection, schedule: Q01DX001 (ip), vehicle: saline
[5] = dose: 100.0 mg/kg/injection, schedule: Q01DX001 (ip), vehicle: saline
[6] = dose: 200.0 mg/kg/injection, schedule: Q01DX001 (ip), vehicle: saline
[7] = dose: 400.0 mg/kg/injection, schedule: Q01DX001 (ip), vehicle: saline
[8] = dose: 400.0 mg/kg/injection, schedule: Q04DX003 (ip), vehicle: Klucel (hydroxypropylcellulose) (HPC)
[9] = dose: 50.0 mg/kg/injection, schedule: Q04DX003 (ip), vehicle: saline
[10] = dose: 100.0 mg/kg/injection, schedule: Q04DX003 (ip), vehicle: saline
[11] = dose: 200.0 mg/kg/injection, schedule: Q04DX003 (ip), vehicle: saline
[12] = dose: 400.0 mg/kg/injection, schedule: Q04DX003 (ip), vehicle: saline
[13] = dose: 300.0 mg/kg/injection, schedule: Q01DX001 (ip), vehicle: other

For `[Cl][Hg][c]1ccccc1N=Nc1ccccc1`, the survivor count (dose: 25.0 mg/kg/injection, schedule: Q01DX009 (ip), vehicle: saline with Tween-80) was 3 of 6, the survivor count [1] was 0 of 6 and the survivor count [2] was 0 of 6. For the same compound, the survivor count (dose: 200.0 mg/kg/injection, schedule: Q01DX009 (ip), vehicle: saline with Tween-80) was 0 of 6 and the survivor count (dose: 400.0 mg/kg/injection, schedule: Q01DX009 (ip), vehicle: saline with Tween-80) was 0 of 6.
For `O=C1C(=O)c2ccccc2C(O)=C1c1ccc(Br)cc1`, the survivor count (dose: 200.0 mg/kg/injection, schedule: Q01DX001 (ip), vehicle: carboxymethylcellulose (CMC)) was 1 of 4 and the survivor count [3] was 0 of 4.
In the case of `CCCC[P+](CCCC)(CCCC)Cc1ccccc1`, the survivor count (dose: 50.0 mg/kg/injection, schedule: Q04DX003 (ip), vehicle: Klucel (hydroxypropylcellulose) (HPC)) is reported as 0 of 6, the survivor count [4] is reported as 0 of 6 and the survivor count [5] is reported as 1 of 6. The survivor count (dose: 100.0 mg/kg/injection, schedule: Q04DX003 (ip), vehicle: Klucel (hydroxypropylcellulose) (HPC)) was 0 of 6, the survivor count [6] was 0 of 6 and the survivor count (dose: 200.0 mg/kg/injection, schedule: Q04DX003 (ip), vehicle: Klucel (hydroxypropylcellulose) (HPC)) was 0 of 6. The survivor count [7] was 0 of 6 and the survivor count [8] was 0 of 6.
For `CN(C)c1ccc(C2OC3(CCCCC3)C[N+]23CCCC3)cc1` (stereo unspecified), the survivor count (dose: 200.0 mg/kg/injection, schedule: Q04DX003 (ip), vehicle: acetone) was 0 of 6 and the survivor count (dose: 400.0 mg/kg/injection, schedule: Q04DX003 (ip), vehicle: acetone) was 0 of 6.
For `C=C(C)C(=O)Nc1c(C)cccc1C`, the survivor count [8] was 6 of 6.
`COc1cccc(/C(=C/c2ccc([N+](=O)[O-])cc2)C(=O)O)c1` was tested, and the T/C (dose: 100.0 mg/kg/injection, schedule: Q04DX002 (ip), vehicle: Klucel (hydroxypropylcellulose) (HPC)) was 93, 96 (2×), 99 % of control, the T/C (dose: 200.0 mg/kg/injection, schedule: Q04DX002 (ip), vehicle: Klucel (hydroxypropylcellulose) (HPC)) was 86, 93, 99, 101 % of control and the T/C (dose: 400.0 mg/kg/injection, schedule: Q04DX002 (ip), vehicle: Klucel (hydroxypropylcellulose) (HPC)) was 99, 105, 120, 125 % of control.
For `O=C1OC(=O)c2cccc3cccc1c23`, the survivor count (dose: 100.0 mg/kg/injection, schedule: Q01DX001 (ip), vehicle: Klucel (hydroxypropylcellulose) (HPC)) was 3 of 3 and the survivor count (dose: 200.0 mg/kg/injection, schedule: Q01DX001 (ip), vehicle: Klucel (hydroxypropylcellulose) (HPC)) was 1 of 3.
With `CCC[N+](C)(C)CCCCOCCCC[N+](C)(C)CCC` the survivor count (dose: 25.0 mg/kg/injection, schedule: Q04DX003 (ip), vehicle: saline) was 0 of 6, the survivor count [9] was 0 of 6 and the survivor count [10] was 0 of 6. For the same compound, the survivor count [11] was 0 of 6 and the survivor count [12] was 0 of 6.
With `NC(=S)N/N=C\c1ncnc2nc[nH]c12` the T/C (dose: 1.25 mg/kg/injection, schedule: Q01DX009 (ip), vehicle: carboxymethylcellulose (CMC)) was 128 % of control, the T/C (dose: 2.0 mg/kg/injection, schedule: Q03HX024 (ip), vehicle: saline) was 132 % of control and the T/C (dose: 2.5 mg/kg/injection, schedule: Q01DX009 (ip), vehicle: carboxymethylcellulose (CMC)) was 125 % of control. For the same compound, the T/C (dose: 4.0 mg/kg/injection, schedule: Q03HX024 (ip), vehicle: saline) was 142 % of control, the T/C (dose: 5.0 mg/kg/injection, schedule: Q01DX009 (ip), vehicle: carboxymethylcellulose (CMC)) was 126 % of control and the T/C (dose: 5.0 mg/kg/injection, schedule: Q01DX009 (ip), vehicle: saline) was 127 % of control. For the same compound, the T/C (dose: 7.0 mg/kg/injection, schedule: Q01DX009 (ip), vehicle: carboxymethylcellulose (CMC)) was 128 % of control, the T/C (dose: 7.0 mg/kg/injection, schedule: Q01DX009 (ip), vehicle: saline) was 127 % of control and the T/C (dose: 10.0 mg/kg/injection, schedule: Q01DX009 (ip), vehicle: carboxymethylcellulose (CMC)) was 128 % of control. The T/C (dose: 10.0 mg/kg/injection, schedule: Q01DX009 (ip), vehicle: saline) was 136 % of control, the T/C (dose: 15.0 mg/kg/injection, schedule: Q01DX009 (ip), vehicle: carboxymethylcellulose (CMC)) was 134 % of control and the T/C (dose: 15.0 mg/kg/injection, schedule: Q01DX009 (ip), vehicle: saline) was 127 % of control. For the same compound, the survivor count (dose: 30.0 mg/kg/injection, schedule: Q01DX009 (ip), vehicle: carboxymethylcellulose (CMC)) was 1 of 6, the survivor count (dose: 40.0 mg/kg/injection, schedule: Q01DX001 (ip), vehicle: saline) was 2 of 6 and the survivor count (dose: 60.0 mg/kg/injection, schedule: Q01DX009 (ip), vehicle: carboxymethylcellulose (CMC)) was 0 of 6. The survivor count [4] was 0 of 6, the survivor count [5] was 0 of 6 and the survivor count [6] was 0 of 6. The survivor count [7] was 0 of 6.
For `CC(C)CCNNCCC(C)C`, the survivor count [13] was 0 of 6.
In the case of `O=C(CBr)c1ccc(I)cc1`, the survivor count [1] is reported as 6 of 6, the survivor count [2] is reported as 0 of 6 and the survivor count [3] is reported as 2 of 4.
`CC(C)C(NC(=O)C(F)(F)F)C(=O)O` (stereo unspecified) was tested, and the survivor count (dose: 350.0 mg/kg/injection, schedule: Q04DX003 (ip), vehicle: saline) was 0 of 6.
`O=C(Nc1ccc(C(=O)O)c(O)c1)Nc1ccccc1C(F)(F)F` was tested, and the survivor count (dose: 400.0 mg/kg/injection, schedule: Q04DX002 (ip), vehicle: carboxymethylcellulose (CMC)) was 3 of 3.
For `O=[N+]([O-])C=C1CCCCC1`, the survivor count (dose: 400.0 mg/kg/injection, schedule: Q01DX001 (ip), vehicle: saline with Tween-80) was 1 of 6.
With `C=C(C)[C@@H](/C=C/[C@@H](C)[C@H]1CC[C@H]2C3=CC[C@H]4C[C@@H](O)CC[C@]4(C)[C@H]3CC[C@]12C)CC` the survivor count [3] was 2 of 4.
`CCOC(=O)c1cnc2ccc(OC)cc2c1` was tested, and the survivor count (dose: 500.0 mg/kg/injection, schedule: Q01DX009 (ip), vehicle: saline + alcohol) was 5 of 6.
In the case of `c1ccc(Cc2cccc[n+]2Cc2ccccc2)cc1`, the survivor count [9] is reported as 2 of 3, the survivor count [10] is reported as 0 of 3 and the survivor count [11] is reported as 0 of 3. The survivor count [12] was 0 of 3.
`CN(C)C12CCCCC1S(=O)(=O)C2` (stereo unspecified) was tested, and the survivor count (dose: 40.0 mg/kg/injection, schedule: Q01DX009 (ip), vehicle: saline) was 0 of 6, the survivor count (dose: 75.0 mg/kg/injection, schedule: Q01DX009 (ip), vehicle: saline) was 0 of 6 and the survivor count (dose: 150.0 mg/kg/injection, schedule: Q01DX009 (ip), vehicle: saline) was 0 of 6. For the same compound, the survivor count (dose: 300.0 mg/kg/injection, schedule: Q01DX009 (ip), vehicle: saline) was 0 of 6.
In the case of `NNC(=O)c1nc2ccccc2s1`, the survivor count [13] is reported as 0 of 6.
With `CCCCCCCCCCCCCCCc1cc(O)cc(O)c1` the survivor count (dose: 100.0 mg/kg/injection, schedule: Q01DX001 (ip), vehicle: other) was 4 of 4.
